Data taken from article PMC4703869.

Tests used:
[1] = molecular target: T1, S-tag-Flag-SRF (serum response factor), expressed in 293T cells (UniProt P11831); assay: pull-down; S-tag-Flag-SRF from 1 mg of 293T extract held on protein S agarose, washed five times with binding buffer with 500 mM LiCl; incubated with 50 μg of GST protein and 100 units of benzonase overnight at 4 °C; both purified
T1 sequence: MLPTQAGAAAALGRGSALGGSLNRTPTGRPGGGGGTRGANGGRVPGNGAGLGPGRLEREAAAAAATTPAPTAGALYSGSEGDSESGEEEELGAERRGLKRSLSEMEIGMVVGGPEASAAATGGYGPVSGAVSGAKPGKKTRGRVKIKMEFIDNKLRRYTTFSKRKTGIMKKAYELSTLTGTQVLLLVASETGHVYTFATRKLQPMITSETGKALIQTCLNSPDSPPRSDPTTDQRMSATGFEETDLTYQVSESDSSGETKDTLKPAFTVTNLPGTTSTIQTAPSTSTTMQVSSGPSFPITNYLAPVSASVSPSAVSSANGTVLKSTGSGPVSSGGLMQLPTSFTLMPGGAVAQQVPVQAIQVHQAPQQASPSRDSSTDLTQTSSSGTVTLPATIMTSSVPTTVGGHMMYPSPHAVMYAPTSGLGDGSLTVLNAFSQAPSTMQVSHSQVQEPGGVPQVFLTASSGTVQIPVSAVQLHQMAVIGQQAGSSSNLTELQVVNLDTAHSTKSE

[2] = molecular target: T2, SRF in the cell extract of the EMSA (UniProt P11831); assay: native gel or EMSA; labelled IL6 promoter CArG probe (10 fmol), 2 μg of extract and 1 μg of GST-tagged YAP (51–394), 2 h at 4 °C, EMSA buffer (15 mM HEPES-KOH pH 7.9, 42 mM NaCl, 2 mM MgCl2); 5% polyacrylamide gel in TBE; the complex holds DNA; only the binder purified
T2 sequence: T1 sequence

Question: How did the binding [1] turn out when “GST-tagged YAP (51–394) (from UniProt P46937-2) (domain or fragment)” was run?
Answer: binds

Question: And the binding [2]?
Answer: binds

No constants are given. Whether binding was seen depends on the method and setting. Binding can be weak; no strength is given. For some assays here: In cells and extracts the contact can be indirect. For some assays here: Tags and fused reporters may be left off the sequences shown.
